Results on 21 molecules are retold here after patent US20180243435A1 (AbbVie / Abbott, published 2018).

The chains behind the UniProt entries cited, without tags or fusion partners. Where a name states a change or a piece, a line headed by the entry shows the natural chain unless it says otherwise.
UniProt Q9NYJ7: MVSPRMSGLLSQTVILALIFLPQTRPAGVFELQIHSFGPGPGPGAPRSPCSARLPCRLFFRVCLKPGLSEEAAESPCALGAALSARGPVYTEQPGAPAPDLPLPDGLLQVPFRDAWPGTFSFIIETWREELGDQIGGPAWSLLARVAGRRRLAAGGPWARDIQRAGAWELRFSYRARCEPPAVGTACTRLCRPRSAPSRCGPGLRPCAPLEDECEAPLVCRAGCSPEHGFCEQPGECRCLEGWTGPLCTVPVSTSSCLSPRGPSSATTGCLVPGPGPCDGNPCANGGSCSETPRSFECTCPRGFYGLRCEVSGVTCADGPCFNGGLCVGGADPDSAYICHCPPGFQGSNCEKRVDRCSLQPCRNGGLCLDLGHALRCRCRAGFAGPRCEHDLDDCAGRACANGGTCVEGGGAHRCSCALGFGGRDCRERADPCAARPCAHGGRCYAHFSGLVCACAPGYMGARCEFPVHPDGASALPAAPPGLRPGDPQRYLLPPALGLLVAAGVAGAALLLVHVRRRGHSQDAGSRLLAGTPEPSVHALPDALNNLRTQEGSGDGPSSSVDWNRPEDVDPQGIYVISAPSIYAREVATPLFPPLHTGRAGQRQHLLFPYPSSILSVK

B1: SC16.15 (antibody, V domains shown)
VH: QVQLQQSGAELAKPGASVKMSCKASGYTFTRYWIHWIKQRPGQGLEWIGYINPTTVYTEFNQNFKDKATLTADKSSTTASMQLSSLTSEDSAVYYCARGGSNFFDYWGQGTTLTVSS
VL: DIQMTQSPASLAASVGETVAITCRASENIYYNLAWYQQKQGKSPQLLIYTANSLEDGVPSRFSGSGSGTQYSLKINSMQPEDSATYFCKQAYDVPPTFGGGTKLEIK
B2: SC16.148 (antibody, V domains shown)
VH: QIQLVQSGPELKKPGETVKISCKASGYTLTNYGMNWVKQAPGKGLKWMGWINTYTGEPTYADDFKGRFAFSLETSARIVYLQINNLKNEDTATYFCAKYEAHEGFVYWGQGTLVTVSA
VL: QIVLTQSPAIMSASPGEKVTMTCSASSSVSYMYWYQQKPGSSPRLLIYDTSNLASGVPVRFSGSGSGTSYSLTISRMEAEDTATYYCQEWSNNPLTFGDGTKLELK
B3: SC16.140 (antibody, V domains shown)
VH: QVQLQQSGPELVRPGASVKMSCKASGYTFTSYWMHWVKQRPGQGLEWIGMIDPSNSETRLNQKFKDKATLNVDKSSNTAYMQLSSLTSEDSAVYYCAVMDYYFDYWGQGTTLTVSS
VL: DIVLTQSLASLAVSLGQRATISCRASKSVSTSGYSYMHWYQQKPGQPPKLLIYLASNLESGVPARFSGSGSGTDFTLNIHPVEDEDAATYYCQHSRELPFTFGGGTKLEIK
B4: SC16.130 (antibody, V domains shown)
VH: EVQLQQSGPELVKPGASVKMSCKASGYTFTSYVMHWVKQKPGQGLEWIGYINPYNDGTEYNEKFKGKATLTSDKSSSTAYMELSSLTSEDSAVYYCARGVYDGYSYFDYWGQGTTLTVSS
VL: DIQLTQSPASLSASVGETVTITCRASGSIHNYLAWYQQKQGKSPQLLVYNAKTLVDGVPSRFSGSGSGTQYSLKINSLQPEDFGYYYCQHFWTTPWTFGGGTKLEIK
B5: SC16.136 (antibody, V domains shown)
VH: EVQLQQSGPELVKPGASVKMSCKASGYTFTSYVMHWVKQKPGQGLEWIGYINPYNDGTKYNEKFKGKATLTSDKSSSTAYMELSSLTSEDSAVYYCARDRSGYEDYYGMDYWGQGTSVTVSS
VL: DIQMTQSPASLSASVGETVTITCRASGNIHNYLAWYQQKQGKSPHLLVYNAKTLADGVPSRFSGSGSGTQYSLKINSLQPEDFGSYYCQHFWSTPWTFGGGTKLEIK
B6: SC16.137 (antibody, V domains shown)
VH: EVQLVESGGDLVKPGGSLKLSCAASGFTFSSYGMSWVRQTPDKRLEWVATISSGGSYTYYPDSVKGRFTISRDNAKNTLYLQMSSLKSEDTAMYYCARRRADAMDYWGQGTSVTVSS
VL: QIVLTQSPAIMSASLGEEITLTCSASSSVSYMHWYQQKSGTSPKLLIYSTSNLASGVPSRFSGSGSGTFYSLTISSVEAEDAADYYCHQWSSYHTFGGGTKLEIKR
B7: SC16.135 (antibody, V domains shown)
VH: QVQLQQSGAELVRPGTSVKVSCKASGYAFTNYLIEWVKQRPGQGLEWIGVINPGSGGTNSNEKFKAKATLTADKSSSTAYMQLSSLTSADSAVYFCARSDYDYAFYAMDYWGQGTSVTVSS
VL: DIKMTQSPSSMYASLGERVTITCKASQDINRYLSWFQQKPGKSPKTLIYRANRLVDGVPSRFSGSGSGQDYSLTISSLEYEDMGIYYCLQYDEFPFTFGSGTKLEIK
B8: SC16.141 (antibody, V domains shown)
VH: QVQLKQSGPGLVAPSQSLFITCTVSGFSLTSYEINWVRQPPGKGLEWLGVIWTGGSTNYNSALISRLSISKDNSKSLVFLKMNSLQTDDTAIYYCVRGVYAMDYWGQGTSVTVSS
VL: DIKMTQSPSSMYASLGERVTITCKASQDINSYLSWFQQKPGKSPKTLIYRANRLVDGVPSRFSGSGSGQDYSLTISSLEYEDMGIYYCLQYDEFPFTFGSGTKLEIK
B9: SC16.133 (antibody, V domains shown)
VH: QVQLKESGPGLVAPSQSLSITCTVSGFSLTNYAVHWVRQSPGKGLEWLGVIWSDGSTDYNAAFISRLSISKDNSKSQVFFKMNSLQADDTAMYYCARKKGGWFPWFAYWGQGTLVTVSA
VL: SIVMTQTPKFLLVSAGDRVTITCKASQSVSNDVAWYQQKPGQSPKLLIYCASNRYTGVPDRFTGSGYGTDFTFTISTVQAEDLAVYFCQQDYSSPLTFGAGTKLELK
B10: SC16.144 (antibody, V domains shown)
VH: QIQLVQSGPELKKPGETVKISCKASGYTFTNYGMNWVKQAPGKGLKWVGWINTYTGEPTYADDFKGRFAFSLETSASTAYLQIDNLKNEDTATYFCARVGDYVGFDYWGQGTTLTVSS
VL: SIVMTQTPKFLLVSAGDRVTITCKASQSVSNDVGWYQQKPGQSPKLLIYYASNRYNGVPDRFTGSGYGTDFTFTISTVQAEDLAVYFCQQDYSSPWTFGGGTKLEIK
B11: SC16.132 (antibody, V domains shown)
VH: QVQLKESGPGLVAPSQSLSITCTVSGFSLTDYGVSWIRQPPGKGLEWLGVVWGGGSTYYNSALKSRLSITKDNSKSQVFLKMNSLQTDDTAMYYCAKQRGQYGAYWGQGTLVTVSA
VL: DIQMTQSPASQSASLGESVTITCLASQTIGTWLAWYQQKPGKSPQLLIYAATSLADGVPSRFSGSGSGTKFSFKISSLQAEDFVSYYCQQLYSTPWTFGGGTKLEIK
B12: SC16.138 (antibody, V domains shown)
VH: QVQLKESGPGLVAPSQSLSITCTVSGFSLTDYGVSWIRQPPGKGLEWLGVVWGGGSTYYNSALKSRLSISKDNSKSQVFLKMNSLQTDDTAMYYCAKQRGQYGAYWGQGTLVTVSA
VL: DIQMTQSPASQSASLGESVTITCLASQTIGTWLAWYQQKPGKSPQLLIYSATSLADGVPSRFSGSGSGTKFSFKISSLQAEDFVSYYCQQLYSTPWTFGGGTKLEIK
B13: SC16.143 (antibody, V domains shown)
VH: QVQLQQSGPELVKPGASVRISCKASGYTFTSYYIHWVKQRPGQGLEWIGWIYPGNGNTKYNEKFKGKATLTADKSSSTAYMQISSLTSEDSAVYFCARERWLLLWFAYWGQGTLVTVSA
VL: DVLMTQTPLSLPVSLGDQASISCRSSQSIVHSNGNTYLEWYLQKPGQSPKLLIYKVSNRFSGVPDRFSGSGSGTDFTLKISRVEAEDLGVYYCFQGSHVPLTFGAGTKLELK
B14: SC16.131 (antibody, V domains shown)
VH: QVQLKESGPGLVAPSQSLSITCTVSGFSLTNYGVHWVRQPPGKGLEWLGVIWAGGITNYNSALMSRLSISEDNSKSQVFLKMNSLQTDDTAMYYCARNLGPYAMDYWGQGTSVTVSS
VL: DIQMNQSPSSLSASLGDTITITCHVSQNINVWLSWYQQKPGNIPKLLIQKASNLHTGVPSRFSGSGSGTGFTLTISSLQPEDIATYYCQQGQSYPFTFGSGTKLEIK
B15: SC16.149 (antibody, V domains shown)
VH: QVQLKESGPGLVAPSQSLSITCAVSGFSLTSFGVHWVRQPPGKGLEWLGVIWAGGSTNYYSALMSRLSISIDNSKSQVFLKMNSLQTDDTAMYYCARDWEGWFAYWGQGTLVTVSA
VL: DIQMNQSPSSLSASLGDTITITCHASQNINVWLSWYQQKPGNIPKLLIYKASHLHTGVPSRLSGSGSGTGFTLTISSLQPEDIATYYCQQGQSYPFTFGSGTTLEIK
B16: SC16.147 (antibody, V domains shown)
VH: QIQLVQSGPELTKPGETVKISCKASGYTFTDYSLHWVKQALGKGLKWMGWINTETGEPAYADDFKGRFAFSLETSASTAYLQINDLKNEDTTTYFCGIYDGYAMDYWGQGTSVTVSS
VL: DIQMTQTASSLSASLGDRVTISCRASQDINNYLNWYQQKPDGTVKLLIYYTSRLHSGVPSRFSGSGSGTDYSLTISILEQEDIATYFCQQGDTLPWTFGGGTKLEIK
B17: SC16.139 (antibody, V domains shown)
VH: EVQLQQSGPELVKPGASVKMSCKASGYTFTNYVMHWVKQKPGQGLEWIGYINPYNDGTKYNEKFKGKATLTSDKSSTTAYMALSSLTSEDSAVYYCAVAYYSNWGFAYWGQGTLVTVSA
VL: DIVMTQSHKFMSTSVGDRVSITCKASQDVNTAVGWYQQKPGQSPKLLIYSASYRYTGVPDRFTGSGSGTDFTFTISSVQAEDLAVYYCQQHYSSPYTFGGGTKLEIK
B18: chimeric SC16.15 (murine SC16.15 variable regions, human IgG1/kappa constant regions) (antibody, V domains shown)
VH: QVQLQQSGAELAKPGASVKMSCKASGYTFTRYWIHWIKQRPGQGLEWIGYINPTTVYTEFNQNFKDKATLTADKSSTTASMQLSSLTSEDSAVYYCARGGSNFFDYWGQGTTLTVSS
VL: DIQMTQSPASLAASVGETVAITCRASENIYYNLAWYQQKQGKSPQLLIYTANSLEDGVPSRFSGSGSGTQYSLKINSMQPEDSATYFCKQAYDVPPTFGGGTKLEIKR
B19: chimeric SC16.34 (murine SC16.34 variable regions, human IgG1/kappa constant regions) (antibody, V domains shown)
VH: QIQLVQSGPELKRPGETVKISCKASGYTFTNYGMNWVKQAPGKGLKWMGWINTYTGDPTYADDFKGRFAFSLETSASTAYLQINNLKNEDTATYFCARIGGNSPSDYWGQGTSLTVSS
VL: SIVMTQTPKFLLVSAGDRVTITCKASQSVSNDVAWYQQKPGQSPKLLIYYASNRYSGVPDRFTGSGYGTDFTFTISTVQAEDLAVYFCQQDYSSPWTFGGGTKLEIKR
B20: chimeric SC16.56 (murine SC16.56 variable regions, human IgG1/kappa constant regions) (antibody, V domains shown)
VH: QIQLVQSGPELKKPGETVKISCKASGYTFTNYGMNWVKQAPGKGLKWMAWINTYTGEPTYADDFKGRFAFSLETSASTASLQIINLKNEDTATYFCARIGDSSPSDYWGQGTTLTVSS
VL: SIVMTQTPKFLLVSAGDRVTITCKASQSVSNDVVWYQQKPGQSPKLLIYYASNRYTGVPDRFAGSGYGTDFSFTISTVQAEDLAVYFCQQDYTSPWTFGGGTKLEIRR
B21: chimeric SC16.25 (murine SC16.25 variable regions, human IgG1/kappa constant regions) (antibody, V domains shown)
VH: QVTLKESGPGILQPSQTLSLTCSFSGFSLSTSGMGVGWIRQPSGEGLEWLTDIWWDDNKYYNPSLKSRLTISKDTSSNQVFLNITSVDTADTATYYCARRVNYYYDPYYAMDYWGQGTSVTVSS
VL: QIVLTQSPAIMSASPGEKVTMTCSASSSVSYMHWYQQKSGTSPKRWIYDSSKLASGVPARFSGSGSGTSYSLTISSMEAEDAATYYCQQWSSNPLTFGAGTKLELKR

Results are given in words; binding and its absence hold for the method and conditions named. Some results given as binding are weak or reduced against the parent protein; the word gives no strength.

The first assay addresses human DLL3 (human) (UniProt Q9NYJ7). Briefly: hybridoma screening: ELISA on immobilized DLL3 or flow cytometry on HEK-293T cells overexpressing hDLL3. (An ELISA detects its analyte on a solid surface through an enzyme-linked reagent.)
On to B1, for which the binding result is on record as “binds”.
Turning to B2, the binding result is “binds”.
The same measure, in the same setting: with B3 the entry was “binds”; with B4, “binds”; with B5, “binds”.
Same read-out and setting: next, B6: “binds”; B7: “binds”; B8: “binds”.
For B9, the binding result is recorded as “binds”.
Still for that read-out and setting: next, B10: “binds”.
With B11, the binding entry was “binds”.
Still for that read-out and setting: with B12 the entry was “binds”; with B13, “binds”; with B14, “binds”.
For B15, the binding result is “binds”.
Still for that read-out and setting: next, B16: “binds”; B17: “binds”.

The next assay shares this target. Briefly: surface plasmon resonance. A general note: In SPR one partner is held on a chip, and binding of the other changes the refractive index at the surface.
With B18, the binding result is “binds”.
In the case of B19, the binding result is “binds”.
On to B20, for which the binding entry is given as “binds”.
As for B21, the binding entry is “binds”.
